The values that follow come from patent US10017506B2, “ATX modulating agents” (BIOGEN MA INC., priority 2012, dated 2018).

Molecules are shown by their SMILES.

For the assay, the target named is T1, Human ATX protein (Homo sapiens, UniProt Q13822).
T1 construct: made in house
As to the kind of experiment: ATX biochemical FRET assay with FS-3 substrate. Conditions: IC50, FRET substrate FS-3 2 μM, ATX 1.0 μg/mL, 30 minutes pre-incubation, 2 hours at room temperature. The source says: ATX (Autotaxin) is a 125 KDa glycoprotein with lysophospholipase D (LPLD) activity that generates the bioactive lipid lysophosphatidic acid (LPA) from lysophosphatidylcholine (LPC). The ATX biochemical assay utilizes a FRET (fluorescence resonance energy transfer) technology platform. The fluorescence signal of FRET substrate FS-3 is quenched due to intra-molecular FRET of a fluorophore to a non-fluorescing quencher (Ferguson, C. G., et al., Org Lett. 2006 May 11; 8(10): 2023-2026, which is incorporated by reference in its entirety). ATX catalyzes the hydrolysis of the substrate which separates the dabsyl quencher from the fluorescein reporter, which becomes fluorescent. The reaction is monitored by a SpectraMax M5 (Molecular Devices, Sunnyvale, Calif.) with at excitation wavelength 485 nm and emission wavelength […].
Fatty acid free-BSA (Sigma A8806): 10 mg/mL in H2O, stored at 4° C.
2×ATX assay buffer: 100 mM Tris, 280 mM NaCl, 10 mM KCl, 2 mM CaCl2, 2 mM MgCl2, pH 7.4.
Human ATX protein: expressed and purified in house. Stored at −80° C.
Substrate FS-3 (Echelon, L-2000): 100 μg in 77.74 μL H2O (1 mM stock), stored at −20° C.
384-well flat bottom plates—Corning #3575.
Compound dilution—All compounds were provided at 10 mM in 100% DMSO. In the first well, 2 μL of 10 mM compound was added to 78 μL of DMSO (1:40 dilution). In subsequent wells 3-fold dilution (total 10 dilutions) were performed.
1×ATX assay buffer was made up with a final concentration of 1 mg/mL fatty acid free-BSA using 2×ATX assay buffer, 10 mg/ml fatty acid free-BSA and ddH2O.
ATX protein was diluted with 1×ATX assay buffer to a concentration of 1.32 μg/mL (1.32×). 38 μL was added per well to the assay plate. The final concentration of ATX in the reaction as 1.0 μg/mL.
2 μL per well of compounds was transferred to provide the desired concentration. The plate was centrifuged, then incubated at room temperature for 30 minutes on the shaker. […]
Fluorescence was measured using SpectraMax M5 (excitation at 485 nm/emission at 538 nm, top read).
Take `C[C@H](c1ccc2ccc(O[C@H]3CC[C@@H](C)CC3)c(C(F)(F)F)c2c1)N1C2CCC1CC(C(=O)O)C2` (single isomer, unassigned) [Example 6a]: the IC50 (commonly the concentration at which inhibition is half-maximal) is at most 100 nM.

Take `C[C@@H](c1ccc2ccc(O[C@H]3CC[C@@H](C)CC3)c(C(F)(F)F)c2c1)N1C2CCC1CC(C(=O)O)C2` (single isomer, unassigned) [Example 6b]: the IC50 is at most 250 nM.

As for `CC(c1ccc2ccc(O[C@H]3CC[C@@H](C)CC3)c(C(F)(F)F)c2c1)N1C2CCC1CC(C(=O)O)C2` (stereo partly drawn) [Example 6, 8-{1-[7-(cis-4-methyl-cyclohexyloxy)-8-trifluoromethyl-naphthalen-2-yl]-ethyl}-8-aza-bicyclo[3.2.1]octane-3-carboxylic acid], the IC50 was at most 100 nM.
